The other results are listed elsewhere or left out. At the low end of the ranking the order means little. Some results are limits rather than exact numbers.

This experiment concerns the target T1, PUM1 PUF domain R2-VFQ R3-THE R4-TFR N899V + Y900F + C935T + R936H + Q939E + N971T + H972F + Q975R (UniProt Q14671).
T1 sequence: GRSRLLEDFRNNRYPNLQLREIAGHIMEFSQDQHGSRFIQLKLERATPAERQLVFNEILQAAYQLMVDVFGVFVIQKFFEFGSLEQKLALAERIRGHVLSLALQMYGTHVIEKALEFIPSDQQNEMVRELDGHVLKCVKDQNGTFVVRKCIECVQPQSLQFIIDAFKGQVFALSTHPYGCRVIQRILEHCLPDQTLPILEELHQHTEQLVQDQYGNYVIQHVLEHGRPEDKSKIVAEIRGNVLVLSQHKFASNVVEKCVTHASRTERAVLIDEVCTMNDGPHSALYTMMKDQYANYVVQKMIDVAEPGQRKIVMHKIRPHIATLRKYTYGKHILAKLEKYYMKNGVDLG
The note with it: yeast three-hybrid, YBZ-1, SC-Leu-His + 0.5 mM 3-AT, 4 days.
In the case of “GGCUAGAACUAGUGGAUCCCCCGGCGCCCGGCGGCUCGAGCCCGGGUAAGUUGCUGUCGUCUGCAUGCCGCCGGGCGCCAUGCCUGCAGGUCGACUCUAGAAAACAUG”, the binding signal (log2 enrichment (interaction score)) was -6.02.
Under “GGCUAGAACUAGUGGAUCCCCCGGCGCCCGGCGGCUCGAGCCCGGGUAAGGUUUCCUCGUCUGCAUGCCGCCGGGCGCCAUGCCUGCAGGUCGACUCUAGAAAACAUG” stands -5.79; under “GGCUAGAACUAGUGGAUCCCCCGGCGCCCGGCGGCUCGAGCCCGGGUAAGUUCAUGUCGUCUGCAUGCCGCCGGGCGCCAUGCCUGCAGGUCGACUCUAGAAAACAUG”, -5.34; under “GGCUAGAACUAGUGGAUCCCCCGGCGCCCGGCGGCUCGAGCCCGGGUAAGAUGCAGUAGUCUGCAUGCCGCCGGGCGCCAUGCCUGCAGGUCGACUCUAGAAAACAUG”, -5.77.
Turning to “GGCUAGAACUAGUGGAUCCCCCGGCGCCCGGCGGCUCGAGCCCGGGUAAGUCAAAGACGUCUGCAUGCCGCCGGGCGCCAUGCCUGCAGGUCGACUCUAGAAAACAUG”, the binding signal (log2 enrichment (interaction score)) is -5.46.
Under “GGCUAGAACUAGUGGAUCCCCCGGCGCCCGGCGGCUCGAGCCCGGGUAAGUUAAGAACGUCUGCAUGCCGCCGGGCGCCAUGCCUGCAGGUCGACUCUAGAAAACAUG” stands less than -6.5.
The figure for “GGCUAGAACUAGUGGAUCCCCCGGCGCCCGGCGGCUCGAGCCCGGGUAAGCGGGCGUAGUCUGCAUGCCGCCGGGCGCCAUGCCUGCAGGUCGACUCUAGAAAACAUG” is -3.92.
With “GGCUAGAACUAGUGGAUCCCCCGGCGCCCGGCGGCUCGAGCCCGGGUAAGCCUAUGGGGUCUGCAUGCCGCCGGGCGCCAUGCCUGCAGGUCGACUCUAGAAAACAUG”, the binding signal (log2 enrichment (interaction score)) is less than -6.45.

(Values after article PMC8384837.)
